Tested on: mRNA
Assay: Heparin displacement assays (dye intercalation and gel electrophoresis)
Assay type: binding
Conditions: HK:mRNA 4:1 w/w; heparin 37°C 30 min; Sybr Gold fluorescence and gel

Substance | Stability of polyplex / release of mRNA on exposure to heparin
R = KHHHKHHHKHHHKHHHK [H3K4b, four‐branched histidine‐lysine peptide with four ‐HHHK‐ motifs in each branch] | released by the H3K4b more rapidly than by the H3K(+H)4b peptide
R = KHHHKHHHKHHHHKHHHK [H3K(+H)4b, four‐branched analogue of H3K4b with one extra histidine in the second ‐HHHK‐ motif] | binds more tightly to the mRNA
